Results as given in the supplement of paper PMC10849652.
The list shows a part of the results.

Sequences of proteins named here, by UniProt entry; tags and fusion partners are left off. A change or cut given only in a name is not applied to a line headed by its entry.
UniProt Q9Y697: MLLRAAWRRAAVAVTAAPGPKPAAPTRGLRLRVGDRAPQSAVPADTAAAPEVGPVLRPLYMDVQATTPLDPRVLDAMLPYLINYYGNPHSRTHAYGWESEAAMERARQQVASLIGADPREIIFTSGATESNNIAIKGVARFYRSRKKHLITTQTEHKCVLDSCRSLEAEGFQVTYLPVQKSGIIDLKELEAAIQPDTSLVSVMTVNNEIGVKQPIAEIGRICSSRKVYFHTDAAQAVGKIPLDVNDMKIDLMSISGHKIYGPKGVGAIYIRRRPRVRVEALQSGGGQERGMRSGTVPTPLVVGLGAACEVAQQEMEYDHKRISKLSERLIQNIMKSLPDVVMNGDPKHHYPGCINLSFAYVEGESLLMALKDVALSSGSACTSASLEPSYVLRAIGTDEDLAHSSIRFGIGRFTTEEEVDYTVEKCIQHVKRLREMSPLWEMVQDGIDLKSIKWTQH
UniProt Q9BZQ8: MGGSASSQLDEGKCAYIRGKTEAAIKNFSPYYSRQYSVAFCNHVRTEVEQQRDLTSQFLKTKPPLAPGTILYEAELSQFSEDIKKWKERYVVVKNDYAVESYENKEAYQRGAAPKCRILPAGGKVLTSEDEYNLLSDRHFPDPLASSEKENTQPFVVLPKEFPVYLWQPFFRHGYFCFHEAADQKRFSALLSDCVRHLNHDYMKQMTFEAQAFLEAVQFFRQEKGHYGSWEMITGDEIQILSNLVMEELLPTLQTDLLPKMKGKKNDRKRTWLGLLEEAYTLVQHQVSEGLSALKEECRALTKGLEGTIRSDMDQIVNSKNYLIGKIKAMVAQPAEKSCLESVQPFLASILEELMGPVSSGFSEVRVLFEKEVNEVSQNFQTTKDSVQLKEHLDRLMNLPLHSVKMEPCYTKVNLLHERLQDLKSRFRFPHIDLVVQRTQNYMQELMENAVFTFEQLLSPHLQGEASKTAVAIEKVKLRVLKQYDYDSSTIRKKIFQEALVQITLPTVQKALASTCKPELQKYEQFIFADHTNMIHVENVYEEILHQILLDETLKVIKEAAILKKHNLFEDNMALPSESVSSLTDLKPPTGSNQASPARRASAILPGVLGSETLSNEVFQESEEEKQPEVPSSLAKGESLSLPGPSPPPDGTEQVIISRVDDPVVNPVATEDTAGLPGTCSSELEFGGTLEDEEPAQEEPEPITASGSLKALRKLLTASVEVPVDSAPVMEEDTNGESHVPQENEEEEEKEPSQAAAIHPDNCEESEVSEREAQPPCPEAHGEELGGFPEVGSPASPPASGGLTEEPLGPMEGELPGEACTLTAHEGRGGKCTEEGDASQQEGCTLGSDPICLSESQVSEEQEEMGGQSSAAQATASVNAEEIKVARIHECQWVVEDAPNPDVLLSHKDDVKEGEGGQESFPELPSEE
UniProt Q9ULX3: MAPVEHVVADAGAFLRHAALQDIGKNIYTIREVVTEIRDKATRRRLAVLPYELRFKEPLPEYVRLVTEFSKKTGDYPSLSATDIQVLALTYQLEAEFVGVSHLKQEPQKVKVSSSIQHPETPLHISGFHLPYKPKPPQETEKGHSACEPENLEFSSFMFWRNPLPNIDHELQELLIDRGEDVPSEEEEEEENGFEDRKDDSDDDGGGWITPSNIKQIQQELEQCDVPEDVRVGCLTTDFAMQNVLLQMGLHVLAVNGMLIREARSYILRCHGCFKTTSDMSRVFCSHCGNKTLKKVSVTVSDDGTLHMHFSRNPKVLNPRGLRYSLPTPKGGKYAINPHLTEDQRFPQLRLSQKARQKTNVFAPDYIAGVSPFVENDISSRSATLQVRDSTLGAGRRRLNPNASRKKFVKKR
UniProt Q9HAN9, whole entry, looked up: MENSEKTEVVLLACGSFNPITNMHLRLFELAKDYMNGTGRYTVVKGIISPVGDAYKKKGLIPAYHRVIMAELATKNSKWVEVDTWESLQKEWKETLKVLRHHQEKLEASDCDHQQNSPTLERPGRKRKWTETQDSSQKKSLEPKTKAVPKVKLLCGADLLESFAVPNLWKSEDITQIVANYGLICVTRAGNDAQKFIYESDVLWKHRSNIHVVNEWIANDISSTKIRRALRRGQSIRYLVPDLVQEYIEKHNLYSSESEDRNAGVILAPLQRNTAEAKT
UniProt Q9Y3C1: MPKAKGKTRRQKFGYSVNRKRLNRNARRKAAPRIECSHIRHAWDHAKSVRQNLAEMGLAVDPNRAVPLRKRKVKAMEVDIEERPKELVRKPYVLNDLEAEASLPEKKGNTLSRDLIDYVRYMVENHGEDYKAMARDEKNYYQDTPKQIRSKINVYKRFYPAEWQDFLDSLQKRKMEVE
UniProt Q92686, whole entry, looked up: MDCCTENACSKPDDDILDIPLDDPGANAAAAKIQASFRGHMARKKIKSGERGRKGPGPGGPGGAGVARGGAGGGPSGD
UniProt Q13232: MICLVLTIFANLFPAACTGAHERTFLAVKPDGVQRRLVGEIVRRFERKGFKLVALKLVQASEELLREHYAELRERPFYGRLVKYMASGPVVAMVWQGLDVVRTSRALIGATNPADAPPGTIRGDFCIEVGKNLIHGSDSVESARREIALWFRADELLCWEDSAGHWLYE
UniProt Q9BYT8, whole entry, looked up: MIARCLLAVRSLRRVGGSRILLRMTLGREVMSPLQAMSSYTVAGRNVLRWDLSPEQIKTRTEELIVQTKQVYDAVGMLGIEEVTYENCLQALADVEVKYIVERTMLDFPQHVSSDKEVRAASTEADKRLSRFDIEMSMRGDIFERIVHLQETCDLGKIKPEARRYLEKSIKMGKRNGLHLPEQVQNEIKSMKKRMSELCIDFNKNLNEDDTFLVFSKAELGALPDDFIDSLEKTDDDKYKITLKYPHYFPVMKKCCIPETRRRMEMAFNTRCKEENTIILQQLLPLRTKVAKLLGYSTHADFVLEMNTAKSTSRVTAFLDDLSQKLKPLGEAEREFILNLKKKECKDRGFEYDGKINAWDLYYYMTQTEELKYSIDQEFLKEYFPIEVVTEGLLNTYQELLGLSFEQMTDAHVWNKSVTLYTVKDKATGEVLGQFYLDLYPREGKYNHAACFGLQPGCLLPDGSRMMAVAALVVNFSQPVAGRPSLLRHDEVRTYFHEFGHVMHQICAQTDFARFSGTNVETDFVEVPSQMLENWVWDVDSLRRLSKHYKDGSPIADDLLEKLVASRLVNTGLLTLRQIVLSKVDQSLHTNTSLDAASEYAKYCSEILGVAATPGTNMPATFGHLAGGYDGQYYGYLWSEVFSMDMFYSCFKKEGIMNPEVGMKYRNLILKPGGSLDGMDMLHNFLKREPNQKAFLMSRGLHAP
UniProt Q9Y2X3: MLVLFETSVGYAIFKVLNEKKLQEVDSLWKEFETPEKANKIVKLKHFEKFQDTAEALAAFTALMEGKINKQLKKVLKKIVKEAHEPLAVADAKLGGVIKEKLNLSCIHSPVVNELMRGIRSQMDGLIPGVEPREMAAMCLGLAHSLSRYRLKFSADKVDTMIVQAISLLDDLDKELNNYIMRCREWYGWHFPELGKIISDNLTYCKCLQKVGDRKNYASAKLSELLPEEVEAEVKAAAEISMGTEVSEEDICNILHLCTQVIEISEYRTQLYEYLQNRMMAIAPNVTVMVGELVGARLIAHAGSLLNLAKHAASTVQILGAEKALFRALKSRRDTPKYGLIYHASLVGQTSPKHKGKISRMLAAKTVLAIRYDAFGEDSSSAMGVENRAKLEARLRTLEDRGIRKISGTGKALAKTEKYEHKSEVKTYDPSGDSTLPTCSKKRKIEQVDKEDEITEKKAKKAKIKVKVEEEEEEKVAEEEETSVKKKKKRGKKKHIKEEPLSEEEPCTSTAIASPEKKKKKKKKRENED
UniProt Q8NC60: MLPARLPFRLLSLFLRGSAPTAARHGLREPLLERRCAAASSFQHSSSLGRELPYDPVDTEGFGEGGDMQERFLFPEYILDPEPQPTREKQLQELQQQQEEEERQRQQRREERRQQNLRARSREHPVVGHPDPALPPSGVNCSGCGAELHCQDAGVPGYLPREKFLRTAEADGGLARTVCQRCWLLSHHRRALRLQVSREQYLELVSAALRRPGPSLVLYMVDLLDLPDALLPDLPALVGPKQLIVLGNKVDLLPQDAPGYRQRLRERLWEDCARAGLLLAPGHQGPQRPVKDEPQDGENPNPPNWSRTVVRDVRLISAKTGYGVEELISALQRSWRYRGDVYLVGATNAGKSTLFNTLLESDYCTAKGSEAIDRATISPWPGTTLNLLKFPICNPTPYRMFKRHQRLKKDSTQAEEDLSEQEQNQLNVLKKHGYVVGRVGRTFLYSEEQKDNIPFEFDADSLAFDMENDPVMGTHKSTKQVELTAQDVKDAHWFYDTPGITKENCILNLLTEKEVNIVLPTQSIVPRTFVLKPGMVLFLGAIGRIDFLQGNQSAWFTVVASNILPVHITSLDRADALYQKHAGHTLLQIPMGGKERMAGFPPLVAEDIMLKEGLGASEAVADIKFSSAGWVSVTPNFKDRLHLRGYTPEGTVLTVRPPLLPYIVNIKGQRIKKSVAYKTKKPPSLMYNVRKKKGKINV
UniProt Q92636: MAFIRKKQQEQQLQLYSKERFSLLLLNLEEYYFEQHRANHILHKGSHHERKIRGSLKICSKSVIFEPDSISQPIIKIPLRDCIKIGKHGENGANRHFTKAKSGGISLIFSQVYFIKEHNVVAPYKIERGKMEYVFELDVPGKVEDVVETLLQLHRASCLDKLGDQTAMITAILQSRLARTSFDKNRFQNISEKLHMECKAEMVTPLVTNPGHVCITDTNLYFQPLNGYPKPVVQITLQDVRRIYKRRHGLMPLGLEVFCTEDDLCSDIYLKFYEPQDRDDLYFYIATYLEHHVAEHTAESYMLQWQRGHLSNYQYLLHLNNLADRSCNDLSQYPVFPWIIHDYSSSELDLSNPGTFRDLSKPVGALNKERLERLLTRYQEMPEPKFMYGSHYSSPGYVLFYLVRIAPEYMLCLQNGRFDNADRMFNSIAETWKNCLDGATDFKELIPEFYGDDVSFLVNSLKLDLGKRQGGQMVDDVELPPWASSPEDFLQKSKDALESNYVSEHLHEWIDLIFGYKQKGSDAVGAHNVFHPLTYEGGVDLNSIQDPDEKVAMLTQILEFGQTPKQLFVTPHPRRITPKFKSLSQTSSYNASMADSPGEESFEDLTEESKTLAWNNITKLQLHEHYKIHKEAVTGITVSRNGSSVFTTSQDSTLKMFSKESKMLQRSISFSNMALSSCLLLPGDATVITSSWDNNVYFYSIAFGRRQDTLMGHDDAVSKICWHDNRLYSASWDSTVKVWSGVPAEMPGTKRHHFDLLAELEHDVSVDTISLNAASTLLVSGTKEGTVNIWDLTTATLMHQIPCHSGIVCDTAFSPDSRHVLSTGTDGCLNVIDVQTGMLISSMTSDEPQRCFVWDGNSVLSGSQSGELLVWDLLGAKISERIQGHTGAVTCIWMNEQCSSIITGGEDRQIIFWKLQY
UniProt Q8TD19: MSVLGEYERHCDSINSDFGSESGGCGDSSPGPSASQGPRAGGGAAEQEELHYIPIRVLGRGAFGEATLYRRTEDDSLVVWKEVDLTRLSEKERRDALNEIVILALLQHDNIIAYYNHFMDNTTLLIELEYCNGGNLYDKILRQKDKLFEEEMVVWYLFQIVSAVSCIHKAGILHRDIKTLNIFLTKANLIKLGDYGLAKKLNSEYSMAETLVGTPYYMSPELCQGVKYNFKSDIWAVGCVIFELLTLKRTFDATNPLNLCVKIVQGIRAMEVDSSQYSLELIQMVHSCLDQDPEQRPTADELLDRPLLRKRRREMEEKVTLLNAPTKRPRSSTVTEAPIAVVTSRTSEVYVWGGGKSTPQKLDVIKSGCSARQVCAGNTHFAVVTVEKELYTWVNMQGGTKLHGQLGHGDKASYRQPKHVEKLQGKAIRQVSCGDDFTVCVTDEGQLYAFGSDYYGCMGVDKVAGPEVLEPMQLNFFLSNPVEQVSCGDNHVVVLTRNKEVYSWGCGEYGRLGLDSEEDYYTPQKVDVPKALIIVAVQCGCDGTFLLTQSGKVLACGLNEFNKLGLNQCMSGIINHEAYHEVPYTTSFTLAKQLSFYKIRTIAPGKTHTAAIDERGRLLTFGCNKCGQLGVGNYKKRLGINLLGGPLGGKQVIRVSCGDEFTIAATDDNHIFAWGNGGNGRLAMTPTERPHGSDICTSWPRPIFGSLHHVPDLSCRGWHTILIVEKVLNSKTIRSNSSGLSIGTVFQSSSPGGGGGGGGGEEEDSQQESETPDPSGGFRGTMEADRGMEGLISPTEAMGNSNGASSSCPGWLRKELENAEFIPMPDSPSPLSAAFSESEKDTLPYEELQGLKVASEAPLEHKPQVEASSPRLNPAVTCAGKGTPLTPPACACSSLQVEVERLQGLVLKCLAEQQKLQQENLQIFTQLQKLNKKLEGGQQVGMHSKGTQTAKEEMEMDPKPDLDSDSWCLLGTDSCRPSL
UniProt Q9UMX5: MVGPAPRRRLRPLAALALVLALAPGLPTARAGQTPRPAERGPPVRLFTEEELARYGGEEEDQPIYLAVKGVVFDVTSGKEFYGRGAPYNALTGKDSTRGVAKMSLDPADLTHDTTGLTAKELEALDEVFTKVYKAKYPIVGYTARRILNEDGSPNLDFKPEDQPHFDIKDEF

Experiments:
Test in all cases: log2 fold change, soluble protein after heating vs DMSO (PISA); higher = thermal stabilisation; K562 cells, 10 uM, 30 min; active = over 0.2 and 3.5 SD of the protein, either way, in both replicates (recomputed)
erlotinib = compound: C#Cc1cccc(Nc2ncnc3cc(OCCOC)c(OCCOC)cc23)c1 [erlotinib]
Summary of the method: (§1)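 Thermal stability values are relative to control samples and come from duplicates. They are expressed as log2 fold changes. For measurement, K562 cells (2×10^6 cells/mL) received 10 μM compound for 30 min, and aliquots were heated for 3 min over 48°C-58°C, pooled, and extracted at 4°C in PBS with 0.5% NP-40. Soluble protein, the supernatant after 21,000xg for 90 min, was quantified by TMTpro 16plex LC-MS/MS with equalised channel sums.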

[1] = compound: C/C(=N\NC(=O)C1=CC(=CC=C1)S(=O)(=O)N2CCOCC2)/C3=C(C=CC(=C3)Cl)O
Summary of the method: as §1

[2] = compound: C1=CC(=C(C=C1Cl)C2=NC3=NC=CN=C3C(=N2)NC4=CC=NC=C4)F
Summary of the method: as §1

[3] = compound: C1=CC(=CC=C1C2=NC3=C(N2)C=C(C=C3)C(=O)N)OC4=CC=C(C=C4)Cl
Summary of the method: as §1

[4] = compound: C1=CC2=C(C=CC(=C2)/C=C\3/C(=O)NC(=NCC4=CC=CS4)S3)N=C1
Summary of the method: as §1

[5] = compound: C1=CC2=NC=CN=C2C=C1/C=C/3\C(=O)NC(=O)S3
Summary of the method: as §1

[6] = compound: C1=CC=C(C=C1)C2=NC(=C(N2)C3=CC=NC=C3)C4=CC(=C(C=C4)Cl)O
Summary of the method: as §1

[7] = compound: C1=CC=C2C(=C1)C3=NNC4=CC=CC(=C43)C2=O
Summary of the method: as §1

[8] = compound: C1CCN(C1)C(=O)NC2=CC=CC(=C2)NC3=NC=C(C(=N3)NCCC4=CN=CN4)Br
Summary of the method: as §1

[9] = compound: C1CN(CCC1(CC2=CC=C(C=C2)Cl)N)C3=NC=NC4=C3C=CN4
Summary of the method: as §1

Measured: log2 fold change

NLRC3 isoform 2 (UniProt Q7RTR2)
inactive: erlotinib 0.266 | [1] -0.176 | [2] -0.097 | [3] -0.062 | [4] 0.569 | [5] 0.048 | [6] -0.315 | [7] -0.06

NFS1 (UniProt Q9Y697)
inactive: erlotinib -0.02 | [1] 0.064 | [2] 0.064 | [3] -0.007 | [4] 0.021 | [5] -0.01 | [6] 0.006 | [7] 0.018 | [8] -0.011 | [9] 0.027

NELFB isoform 2 (UniProt Q8WX92)
inactive: erlotinib 0.046 | [1] 0.151 | [2] 0 | [3] -0.036 | [4] 0.054 | [5] 0.07 | [6] -0.049 | [7] 0.01 | [8] -0.075 | [9] -0.025

NRDC isoform 2 (UniProt O43847)
inactive: erlotinib -0.016 | [1] 0.081 | [2] 0.012 | [3] -0.024 | [4] 0.021 | [5] 0.024 | [6] 0.027 | [7] 0.057 | [8] -0.046 | [9] 0.049

NISCH (UniProt Q9Y2I1)
inactive: erlotinib 0.141 | [1] 0.1 | [2] -0.083 | [3] 0.026 | [4] 0.089 | [5] 0.068 | [6] 0.044 | [7] -0.144 | [8] 0.039 | [9] -0.032

NLE1 (UniProt Q9NVX2)
inactive: erlotinib -0.041 | [1] 0.057 | [2] 0.009 | [3] 0.057 | [4] -0.01 | [5] 0.013 | [6] 0.035 | [7] 0.011 | [8] -0.043 | [9] 0.03

NIBAN1 (UniProt Q9BZQ8)
inactive: erlotinib 0.014 | [1] 0.103 | [2] -0.022 | [3] 0.017 | [4] 0.058 | [5] -0.009 | [6] -0.005 | [7] -0.047 | [8] -0.017 | [9] -0.06

NOL12 (UniProt Q9UGY1)
inactive: erlotinib -0.11 | [1] -0.102 | [2] -0.597 | [3] -0.006 | [4] -0.059 | [5] 0.073 | [6] -0.209 | [7] -0.018 | [8] 0.168 | [9] -0.171

NOB1 (UniProt Q9ULX3)
inactive: erlotinib 0.048 | [1] 0.061 | [2] -0.106 | [3] 0.017 | [4] -0.025 | [5] -0.08 | [6] 0.081 | [7] 0.053 | [8] 0.045 | [9] -0.078

NMNAT1 (UniProt Q9HAN9)
inactive: erlotinib 0.033 | [1] -0.145 | [2] -0.302 | [3] -0.111 | [4] -0.032 | [5] 0.03 | [6] -0.102 | [7] -0.008 | [8] 0.157 | [9] -0.046

NHLRC3 (UniProt Q5JS37)
inactive: erlotinib -0.008 | [1] 0.172 | [2] -0.019 | [3] 0.045 | [4] 0.074 | [5] 0.014 | [6] -0.049 | [7] -0.138 | [8] 0.16 | [9] -0.147

NOMO2 (UniProt Q5JPE7)
inactive: erlotinib -0.03 | [1] 0.036 | [2] 0.004 | [3] -0.013 | [4] 0.045 | [5] 0.013 | [6] 0.037 | [7] 0.013 | [8] -0.019 | [9] 0.011

NSF (UniProt P46459)
inactive: erlotinib 0.009 | [1] 0.065 | [2] 0.012 | [3] -0.003 | [4] 0.052 | [5] 0.009 | [6] -0.001 | [7] 0.051 | [8] 0.02 | [9] -0.038

NOP16 (UniProt Q9Y3C1)
inactive: erlotinib -0.227 | [1] -0.289 | [2] -0.485 | [3] -0.03 | [4] -0.167 | [5] -0.044 | [6] -0.054 | [7] 0.017 | [8] 0.058 | [9] -0.163

NRGN (UniProt Q92686)
inactive: erlotinib 0.066 | [1] 0.086 | [2] 0.054 | [3] -0.074 | [4] -0.264 | [5] -0.027 | [6] 0.139 | [7] 0.105

NMT2 (UniProt O60551)
inactive: erlotinib 0.028 | [1] 0.031 | [2] 0.007 | [3] 0.004 | [4] 0.062 | [5] 0.032 | [6] -0.043 | [7] 0.021 | [8] 0.041
active: [9] -0.369

NRAS (UniProt P01111)
inactive: erlotinib -0.072 | [1] 0.001 | [2] 0.02 | [3] 0.043 | [4] 0.002 | [5] 0.004 | [6] -0.043 | [7] -0.059 | [8] -0.048 | [9] 0.066

Reprinted from above (7 entries):
NMNAT1 (UniProt Q9HAN9)
inactive: erlotinib 0.033 | [1] -0.145 | [2] -0.302 | [3] -0.111 | [4] -0.032 | [5] 0.03 | [6] -0.102 | [7] -0.008 | [8] 0.157 | [9] -0.046

NHLRC3 (UniProt Q5JS37)
inactive: erlotinib -0.008 | [1] 0.172 | [2] -0.019 | [3] 0.045 | [4] 0.074 | [5] 0.014 | [6] -0.049 | [7] -0.138 | [8] 0.16 | [9] -0.147

NOMO2 (UniProt Q5JPE7)
inactive: erlotinib -0.03 | [1] 0.036 | [2] 0.004 | [3] -0.013 | [4] 0.045 | [5] 0.013 | [6] 0.037 | [7] 0.013 | [8] -0.019 | [9] 0.011

NSF (UniProt P46459)
inactive: erlotinib 0.009 | [1] 0.065 | [2] 0.012 | [3] -0.003 | [4] 0.052 | [5] 0.009 | [6] -0.001 | [7] 0.051 | [8] 0.02 | [9] -0.038

NOP16 (UniProt Q9Y3C1)
inactive: erlotinib -0.227 | [1] -0.289 | [2] -0.485 | [3] -0.03 | [4] -0.167 | [5] -0.044 | [6] -0.054 | [7] 0.017 | [8] 0.058 | [9] -0.163

NRGN (UniProt Q92686)
inactive: erlotinib 0.066 | [1] 0.086 | [2] 0.054 | [3] -0.074 | [4] -0.264 | [5] -0.027 | [6] 0.139 | [7] 0.105

NMT2 (UniProt O60551)
inactive: erlotinib 0.028 | [1] 0.031 | [2] 0.007 | [3] 0.004 | [4] 0.062 | [5] 0.032 | [6] -0.043 | [7] 0.021 | [8] 0.041
active: [9] -0.369

Later entries:

NME3 (UniProt Q13232)
inactive: erlotinib 0.033 | [1] -0.022 | [2] 0.075 | [3] 0.052 | [4] 0.034 | [5] 0.068 | [6] 0.009 | [7] -0.03 | [8] 0.008 | [9] 0.059

NIPA2 (UniProt Q8N8Q9)
inactive: erlotinib -0.001 | [1] 0.042 | [2] 0.107 | [3] 0.077 | [4] -0.003 | [5] 0.012 | [6] 0.025 | [7] -0.034 | [8] 0.005 | [9] 0.102

NLN (UniProt Q9BYT8)
inactive: erlotinib 0.023 | [1] 0 | [2] 0.078 | [3] -0.009 | [4] 0.071 | [5] 0.003 | [6] 0.015 | [7] 0.024 | [8] -0.023 | [9] 0.037

NOP58 (UniProt Q9Y2X3)
inactive: erlotinib -0.013 | [1] 0.001 | [2] -0.332 | [3] -0.001 | [4] -0.043 | [5] 0.034 | [6] -0.055 | [7] -0.126 | [8] -0.156 | [9] -0.143

NHLRC2 (UniProt Q8NBF2)
inactive: erlotinib 0.035 | [1] 0 | [2] -0.059 | [3] 0.057 | [4] 0.065 | [5] -0.074 | [6] -0.114 | [7] 0.042 | [8] 0.051 | [9] 0.001

NFIA isoform 4 (UniProt Q12857)
inactive: erlotinib -0.066 | [1] -0.117 | [2] -0.062 | [3] 0.055 | [4] 0.101 | [5] 0.112 | [6] -0.045 | [7] -0.058 | [8] -0.104 | [9] 0.055

NME2P1 (UniProt O60361)
inactive: erlotinib 0.147 | [1] 0.012 | [2] 0.147 | [3] 0.03 | [4] 0.04 | [5] 0.137 | [6] -0.163 | [7] 0.026 | [8] 0.076 | [9] 0.078

NOA1 (UniProt Q8NC60)
inactive: erlotinib 0.133 | [1] 0.038 | [2] -0.283 | [3] -0.008 | [4] 0.11 | [5] 0.056 | [6] -0.034 | [7] 0.073 | [8] 0.081 | [9] -0.015

NSMAF (UniProt Q92636)
inactive: erlotinib -0.053 | [1] 0.034 | [2] 0.047 | [3] 0.021 | [4] -0.036 | [5] -0.008 | [6] -0.021 | [7] 0.03 | [8] -0.057 | [9] 0.02

NFATC2IP (UniProt Q8NCF5)
inactive: erlotinib -0.051 | [1] 0.131 | [2] -0.034 | [3] 0.014 | [4] 0.018 | [5] 0.085 | [6] -0.029 | [7] -0.014 | [8] -0.117 | [9] 0.061

NEK9 (UniProt Q8TD19)
inactive: erlotinib 0.018 | [1] 0.018 | [2] 0.054 | [3] -0.008 | [4] 0.013 | [5] 0.055 | [6] -0.033 | [7] 0.004 | [8] 0.006 | [9] 0.019

NEU1 (UniProt Q99519)
inactive: erlotinib 0.001 | [1] -0.05 | [2] -0.027 | [3] 0.101 | [4] 0.003 | [5] 0 | [6] -0.018 | [7] -0.011 | [8] 0.012 | [9] -0.047

NENF (UniProt Q9UMX5)
inactive: erlotinib 0.037 | [1] 0.039 | [2] 0.055 | [3] -0.016 | [4] 0.009 | [5] 0.032 | [6] -0.03 | [7] 0.015 | [8] 0.035 | [9] 0.003
